Experimental data taken from patent publication US12521406B2, “Use of compounds in the treatment of fungal infections” (Basilea Pharmaceutica International AG, Allschwil, priority 2020, dated 2026).
At least one structure is not confirmed: it was looked up by name or label, or the drawing left a doubt.

What was measured:
[1] = system: Aspergillus fumigatus, Scedosporium prolificans, and Fusarium solani; experiment: 5-fluorouracil immunosuppressed mice with IMIs; assay type: in vivo
[2] = system: Fusarium, Aspergillus/Lichtheimia, C. albicans, L. prolificans infection; details: of fourteen evaluable patients; reduction in signs and symptoms and/or radiological improvement
[3] = system: A. fumigatus, S. apiospermum, F. solani, and Rhizopus spp.; experiment: Cyclophosphamide and cortisone acetate immunosuppressed mice with IMIs; assay type: in vivo
[4] = system: Aspergillus spp. or rare molds; experiment: Phase 2 open-label study in patients with invasive mold infections; assay type: in vivo, human

## Nc1c(-c2cc(Cc3ccc(COc4ccccn4)cc3)no2)ccc[n+]1COP(=O)([O-])O [compound 1]
[1]
  pulmonary fungal colony counts: reduced pulmonary fungal colony counts
  survival rates: statistically significantly improved survival rates
[2]
  patients with favorable response: twelve
[3]
  fungal burden: reduced fungal burden
  survival rates: statistically significantly improved survival rates
[4]; 12 patients treated
  day 42 survival: seven of the 12
[4]; human, in vivo
  global response monitored clinically and radiologically: good global response
